Taken from: PubChem BioAssay AID1224830 (NIAID, 2016)
The deposit covers about 18,000 reagents; below is an unselected part. In the full data, about 2,900 (16%) were called active. 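Calls are made per well; low scores hint the gene aids the LPS response, high scores that it dampens it.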 Repeated entries: four replicate wells of each siRNA pool.

Assay: 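Genes whose knock-down alters the TNF-alpha reporter response to LPS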 (primary screen)
Cell system: human THP-1 monocytic leukaemia cells, TNF dual-luciferase reporter clone, PMA-differentiated to macrophage-like cells
Reagents: siRNA pool against human genes, 50 nM
Timing: LPS for 4 h, given about 3 days after siRNA transfection
Challenge: bacterial LPS (TLR4 ligand), 10 ng/ml
Measurement: 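TNF firefly reporter luminescence divided by renilla, normalised to the plate median, then turned into a robust z-score for each replicate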
Scale: TNF reporter robust z-score: higher = stronger TNF reporter response to LPS
Call rule: 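Each well counts as active if its z-score is over 2.8 or under -1.5; controls are left without a call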

gene | TNF reporter robust z-score | activity call
SMARCC2 | 2.25 | inactive
SMARCC2 | 2.42 | inactive
SMARCC2 | 2.06 | inactive
SMARCC2 | 3.16 | active
ATXN2 | 2.04 | inactive
ATXN2 | 2.16 | inactive
ATXN2 | 0.68 | inactive
ATXN2 | 1.28 | inactive
UBASH3A | 2.04 | inactive
UBASH3A | 3.43 | active
UBASH3A | 3.78 | active
UBASH3A | 2.9 | active
CDH13 | -0.53 | inactive
CDH13 | -0.3 | inactive
CDH13 | -0.89 | inactive
CDH13 | -0.84 | inactive
RABEP2 | 0.34 | inactive
RABEP2 | 0.06 | inactive
RABEP2 | 0.37 | inactive
RABEP2 | 1.16 | inactive
MXRA7 | -0.86 | inactive
MXRA7 | -0.76 | inactive
MXRA7 | -0.16 | inactive
MXRA7 | -0.24 | inactive
ZWINT | 0.41 | inactive
ZWINT | 0.7 | inactive
ZWINT | 1.5 | inactive
ZWINT | 0.73 | inactive
GPD2 | 0.1 | inactive
GPD2 | 0.45 | inactive
GPD2 | 0.65 | inactive
GPD2 | 0.8 | inactive
JCHAIN | 0.49 | inactive
JCHAIN | 0.43 | inactive
JCHAIN | -0.27 | inactive
JCHAIN | -1.33 | inactive
PNMA6A | 0.46 | inactive
PNMA6A | 1.51 | inactive
PNMA6A | 2.08 | inactive
PNMA6A | 2.29 | inactive
SFXN5 | -0.58 | inactive
SFXN5 | -0.32 | inactive
SFXN5 | 1.93 | inactive
SFXN5 | 0.16 | inactive
MARS2 | 0.77 | inactive
MARS2 | 1.06 | inactive
MARS2 | 0.27 | inactive
MARS2 | 0.97 | inactive

Reformatted: results already given
gene	TNF reporter robust z-score	activity call
MXRA7	-0.86	inactive
MXRA7	-0.76	inactive
MXRA7	-0.16	inactive
MXRA7	-0.24	inactive
ZWINT	0.41	inactive
ZWINT	0.7	inactive
ZWINT	1.5	inactive
ZWINT	0.73	inactive
